Measurements reported in the supplement of paper PMC4604168 (melanoma cell lines).
The list shows a part of the results. Repeats are few or missing, and single values can be far off.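 The apoptosis fraction was the count of cleaved-PARP antibody-stained nuclei relative to all DNA-stained nuclei, imaged in 1,536-well plates. Screening doses were set so most cells survived, and baseline and induced cleaved-PARP levels vary greatly across cell lines.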

What was measured:
Experiment in all cases: cleaved PARP positive nuclei fraction relative to DMSO control; melanoma cells; higher = more apoptosis
Settings in all cases: library dose: low library concentration; 72 h
MZ2-MEL = tested on: MZ2-MEL
MeWo = tested on: MeWo
RPMI7951 = tested on: RPMI7951
RVH-421 = tested on: RVH-421
SkMel28 = tested on: SkMel28
SkMel30 = tested on: SkMel30
SkMel5 = tested on: SkMel5
UACC257 = tested on: UACC257
UACC62 = tested on: UACC62

Compound | cleaved PARP positive nuclei fraction (MZ2-MEL) [%] | cleaved PARP positive nuclei fraction (MeWo) [%] | cleaved PARP positive nuclei fraction (RPMI7951) [%] | cleaved PARP positive nuclei fraction (RVH-421) [%] | cleaved PARP positive nuclei fraction (SkMel28) [%] | cleaved PARP positive nuclei fraction (SkMel30) [%] | cleaved PARP positive nuclei fraction (SkMel5) [%] | cleaved PARP positive nuclei fraction (UACC257) [%] | cleaved PARP positive nuclei fraction (UACC62) [%]
O=C(O)c1ccc(-c2c[nH]c3ncc(-c4ccccc4)cc23)cc1C1CCCC1 + Oc1nc(-c2ccc(C(F)(F)F)cc2)nc2c1CSCC2 [XAV939] (first compound 0.16 µM, partner dose 2 µM) | 188 | 62.8 | 52.1 | 174 | 169 | 102 | 111 | 203 | 87.6
COc1ccc2c(c1)CCC1C2CCC2(C)C(NCCCCCCN3C(=O)C=CC3=O)CCC12 (configuration not stated) + COc1ccc(-c2ccc3c(N4CCOCC4)nc(N4C[C@@H](C)O[C@@H](C)C4)nc3n2)cc1CO [KU0063794] (first compound 0.4 µM, partner dose 0.02 µM) | 95.7 | 28.1 | 124 | 143 | 54.2 | 46 | 60.4 | 238 | 249
CN(C)S(=O)(=O)c1ccc2c(c1)/C(=C/c1cc3c([nH]1)CCCC3)C(=O)N2 + COC(=O)c1sccc1S(=O)(=O)Nc1ccc(Nc2ccccc2)cc1OC [GSK0660] (first compound 0.4 µM, partner dose 1 µM) | 137 | 58.5 | 86.7 | 66.9 | 131 | 61.2 | 62.5 | 43.5 | 84.1
Oc1cc(-c2nc(-c3ccccc3)[nH]c2-c2ccncc2)ccc1Cl + CC(C)CCN1c2nc(Nc3cc(F)c(O)c(F)c3)ncc2N(C)C(=O)C1C [BID1870] (first compound 0.2 µM, partner dose 0.2 µM) | 48.1 | 106 | 90.1 | 77.2 | 203 | 198 | 65.1 | 59.9 | 173
COc1ccc(-c2ccc3c(N4CCOCC4)nc(N4C[C@@H](C)O[C@@H](C)C4)nc3n2)cc1CO + CCCCCCCCCCCC1=C(O)C(=O)C=C(O)C1=O [Embelin] (first compound 0.02 µM, partner dose 1.2 µM) | 62.1 | 54.8 | 50 | 108 | 61.2 | 545 | 179 | 89.2 | 83.8
CCc1ccc(CCOc2ccc(CC3SC(=O)NC3=O)cc2)nc1 (configuration not stated) [pioglitazone] + CCN(CC)CCCCNc1ncc2cc(-c3cc(OC)cc(OC)c3)c(NC(=O)NC(C)(C)C)nc2n1 [PD173074] (first compound 2 µM, partner dose 0.1 µM) | 73.1 | 100 | 137 | 83.6 | 49 | 35.3 | 57.2 | 79.9 | 25.2
O=C(O)C(=O)Nc1sc2c(c1C(=O)O)CCNC2 + O=C1NC(=O)/C(=C/c2ccc(-c3ccc(F)cc3O)o2)S1 [AS252424] (first compound 1.66667 µM, partner dose 1 µM) | 155 | 55.7 | 179 | 30.4 | 104 | 14 | 75.5 | 110 | 87.7
O=C(Nc1ccccc1)c1cc([N+](=O)[O-])ccc1Cl + COc1cc(N2CCC(N3CCN(C)CC3)CC2)ccc1Nc1ncc(Cl)c(Nc2ccccc2S(=O)(=O)C(C)C)n1 [NVP-TAE684] (first compound 2 µM, partner dose 0.08 µM) | 93.4 | 109 | 91.8 | 139 | 25.7 | 56.5 | 145 | 66.9 | 117
CCN(CC)CCCCNc1ncc2cc(-c3cc(OC)cc(OC)c3)c(NC(=O)NC(C)(C)C)nc2n1 + O=S(=O)(c1ccccc1)N(CC(F)(F)F)c1ccc(C(O)(C(F)(F)F)C(F)(F)F)cc1 [T0901317] (first compound 0.1 µM, partner dose 1.4 µM) | 85 | 25.3 | 34.8 | 261 | 176 | 29.8 | 16.7 | 24.2 | 64.4
O=C(O)C(=O)Nc1sc2c(c1C(=O)O)CCNC2 + Cc1cc([N+](=O)[O-])ccc1NS(=O)(=O)c1cc(Cl)ccc1Cl [FH535] (first compound 1.66667 µM, partner dose 1 µM) | 43.3 | 56.6 | 44 | 167 | 252 | 17 | 44.2 | 30.1 | 102
O=S(=O)(c1ccccc1)N(CC(F)(F)F)c1ccc(C(O)(C(F)(F)F)C(F)(F)F)cc1 + Oc1nc(-c2ccc(C(F)(F)F)cc2)nc2c1CSCC2 [XAV939] (first compound 1.4 µM, partner dose 2 µM) | 175 | 56 | 73.4 | 18.6 | 91.7 | 26.2 | 42.9 | 76 | 58.5
N#Cc1c(O)c2c(-c3ccc(-c4ccccc4O)cc3)csc2[nH]c1=O + CC(C)CCN1c2nc(Nc3cc(F)c(O)c(F)c3)ncc2N(C)C(=O)C1C [BID1870] (first compound 2 µM, partner dose 0.2 µM) | 99.2 | 103 | 76.1 | 110 | 134 | 33.8 | 79.3 | 67.2 | 202
COc1cc2c(Oc3ccc4[nH]c(C)cc4c3F)ncnc2cc1OCCCN1CCCC1 [cediranib] + O=C1NC(=O)/C(=C/c2ccc(-c3ccc(F)cc3O)o2)S1 [AS252424] (first compound 0.4 µM, partner dose 1 µM) | 152 | 26.6 | 180 | 46.2 | 93.2 | 64.4 | 94.1 | 146 | 250

Limited to cleaved PARP positive nuclei fraction (UACC257) [%], cleaved PARP positive nuclei fraction (MZ2-MEL) [%] and cleaved PARP positive nuclei fraction (MeWo) [%], for some of the entries so far:

| Compound | cleaved PARP positive nuclei fraction (UACC257) [%] | cleaved PARP positive nuclei fraction (MZ2-MEL) [%] | cleaved PARP positive nuclei fraction (MeWo) [%] |
| --- | --- | --- | --- |
| N#Cc1c(O)c2c(-c3ccc(-c4ccccc4O)cc3)csc2[nH]c1=O + CC(C)CCN1c2nc(Nc3cc(F)c(O)c(F)c3)ncc2N(C)C(=O)C1C [BID1870] (first compound 2 µM, partner dose 0.2 µM) | 67.2 | 99.2 | 103 |
| COc1cc2c(Oc3ccc4[nH]c(C)cc4c3F)ncnc2cc1OCCCN1CCCC1 [cediranib] + O=C1NC(=O)/C(=C/c2ccc(-c3ccc(F)cc3O)o2)S1 [AS252424] (first compound 0.4 µM, partner dose 1 µM) | 146 | 152 | 26.6 |
